We go through 21 molecules from patent US20220041718A1 (AUTOLUS, published 2022).

The chains are these.
B1: hJovi-1 variant IgG, VH T28K, Y32F, A100N, N103A; VL unmutated (antibody, V domains shown)
VH: QVQLVQSGAEVKKPGASVKVSCKASGYKFTGFVMHWVRQAPGQGLEWMGFINPYNDDIQSNERFRGRVTMTRDTSISTAYMELSRLRSDDTAVYYCARGNGYAFDGAYRFFDFWGQGTMVTVSS
VL: DIVMTQSPLSLPVTPGEPASISCRSSQRLVHSNGNTYLHWYLQKPGQSPRLLIYRVSNRFPGVPDRFSGSGSGTDFTLKISRVEAEDVGVYYCSQSTHVPYTFGQGTKLEIK
notes: IgG format
B2: hJovi-1 variant IgG, VH T28K, Y32F, A100N, N103S; VL unmutated (antibody, V domains shown)
VH: QVQLVQSGAEVKKPGASVKVSCKASGYKFTGFVMHWVRQAPGQGLEWMGFINPYNDDIQSNERFRGRVTMTRDTSISTAYMELSRLRSDDTAVYYCARGNGYSFDGAYRFFDFWGQGTMVTVSS
VL: DIVMTQSPLSLPVTPGEPASISCRSSQRLVHSNGNTYLHWYLQKPGQSPRLLIYRVSNRFPGVPDRFSGSGSGTDFTLKISRVEAEDVGVYYCSQSTHVPYTFGQGTKLEIK
notes: IgG format
B3: hJovi-1 variant IgG, VH T28K, Y32F, A100N, N103M; VL unmutated (antibody, V domains shown)
VH: QVQLVQSGAEVKKPGASVKVSCKASGYKFTGFVMHWVRQAPGQGLEWMGFINPYNDDIQSNERFRGRVTMTRDTSISTAYMELSRLRSDDTAVYYCARGNGYMFDGAYRFFDFWGQGTMVTVSS
VL: DIVMTQSPLSLPVTPGEPASISCRSSQRLVHSNGNTYLHWYLQKPGQSPRLLIYRVSNRFPGVPDRFSGSGSGTDFTLKISRVEAEDVGVYYCSQSTHVPYTFGQGTKLEIK
notes: IgG format
B4: hJovi-1 variant IgG, VH T28K, Y32F, A100N, Y102F; VL N35R (antibody, V domains shown)
VH: QVQLVQSGAEVKKPGASVKVSCKASGYKFTGFVMHWVRQAPGQGLEWMGFINPYNDDIQSNERFRGRVTMTRDTSISTAYMELSRLRSDDTAVYYCARGNGFNFDGAYRFFDFWGQGTMVTVSS
VL: DIVMTQSPLSLPVTPGEPASISCRSSQRLVHSNGRTYLHWYLQKPGQSPRLLIYRVSNRFPGVPDRFSGSGSGTDFTLKISRVEAEDVGVYYCSQSTHVPYTFGQGTKLEIK
notes: IgG format
B5: hJovi-1 variant IgG, VH T28K, Y32F, A100N, N103W; VL unmutated (antibody, V domains shown)
VH: QVQLVQSGAEVKKPGASVKVSCKASGYKFTGFVMHWVRQAPGQGLEWMGFINPYNDDIQSNERFRGRVTMTRDTSISTAYMELSRLRSDDTAVYYCARGNGYWFDGAYRFFDFWGQGTMVTVSS
VL: DIVMTQSPLSLPVTPGEPASISCRSSQRLVHSNGNTYLHWYLQKPGQSPRLLIYRVSNRFPGVPDRFSGSGSGTDFTLKISRVEAEDVGVYYCSQSTHVPYTFGQGTKLEIK
notes: IgG format
B6: hJovi-1 variant IgG, VH T28K, Y32F, A100N, N103L; VL unmutated (antibody, V domains shown)
VH: QVQLVQSGAEVKKPGASVKVSCKASGYKFTGFVMHWVRQAPGQGLEWMGFINPYNDDIQSNERFRGRVTMTRDTSISTAYMELSRLRSDDTAVYYCARGNGYLFDGAYRFFDFWGQGTMVTVSS
VL: DIVMTQSPLSLPVTPGEPASISCRSSQRLVHSNGNTYLHWYLQKPGQSPRLLIYRVSNRFPGVPDRFSGSGSGTDFTLKISRVEAEDVGVYYCSQSTHVPYTFGQGTKLEIK
notes: IgG format
B7: hJovi-1 variant IgG, VH T28K, Y32F, A100N, Y102F, N103M; VL N35F (antibody, V domains shown)
VH: QVQLVQSGAEVKKPGASVKVSCKASGYKFTGFVMHWVRQAPGQGLEWMGFINPYNDDIQSNERFRGRVTMTRDTSISTAYMELSRLRSDDTAVYYCARGNGFMFDGAYRFFDFWGQGTMVTVSS
VL: DIVMTQSPLSLPVTPGEPASISCRSSQRLVHSNGFTYLHWYLQKPGQSPRLLIYRVSNRFPGVPDRFSGSGSGTDFTLKISRVEAEDVGVYYCSQSTHVPYTFGQGTKLEIK
notes: IgG format
B8: hJovi-1 variant IgG, VH T28K, Y32F, A100N, N103F; VL unmutated (antibody, V domains shown)
VH: QVQLVQSGAEVKKPGASVKVSCKASGYKFTGFVMHWVRQAPGQGLEWMGFINPYNDDIQSNERFRGRVTMTRDTSISTAYMELSRLRSDDTAVYYCARGNGYFFDGAYRFFDFWGQGTMVTVSS
VL: DIVMTQSPLSLPVTPGEPASISCRSSQRLVHSNGNTYLHWYLQKPGQSPRLLIYRVSNRFPGVPDRFSGSGSGTDFTLKISRVEAEDVGVYYCSQSTHVPYTFGQGTKLEIK
notes: IgG format
B9: hJovi-1 variant IgG, VH T28K, Y32F, A100N, N103E; VL unmutated (antibody, V domains shown)
VH: QVQLVQSGAEVKKPGASVKVSCKASGYKFTGFVMHWVRQAPGQGLEWMGFINPYNDDIQSNERFRGRVTMTRDTSISTAYMELSRLRSDDTAVYYCARGNGYEFDGAYRFFDFWGQGTMVTVSS
VL: DIVMTQSPLSLPVTPGEPASISCRSSQRLVHSNGNTYLHWYLQKPGQSPRLLIYRVSNRFPGVPDRFSGSGSGTDFTLKISRVEAEDVGVYYCSQSTHVPYTFGQGTKLEIK
notes: IgG format
B10: hJovi-1 variant IgG, VH T28K, Y32F, A100N, Y102F, N103M; VL N35R (antibody, V domains shown)
VH: QVQLVQSGAEVKKPGASVKVSCKASGYKFTGFVMHWVRQAPGQGLEWMGFINPYNDDIQSNERFRGRVTMTRDTSISTAYMELSRLRSDDTAVYYCARGNGFMFDGAYRFFDFWGQGTMVTVSS
VL: DIVMTQSPLSLPVTPGEPASISCRSSQRLVHSNGRTYLHWYLQKPGQSPRLLIYRVSNRFPGVPDRFSGSGSGTDFTLKISRVEAEDVGVYYCSQSTHVPYTFGQGTKLEIK
notes: IgG format
B11: hJovi-1 variant IgG, VH T28K, Y32F, A100N, Y102L, N103M; VL N35R (antibody, V domains shown)
VH: QVQLVQSGAEVKKPGASVKVSCKASGYKFTGFVMHWVRQAPGQGLEWMGFINPYNDDIQSNERFRGRVTMTRDTSISTAYMELSRLRSDDTAVYYCARGNGLMFDGAYRFFDFWGQGTMVTVSS
VL: DIVMTQSPLSLPVTPGEPASISCRSSQRLVHSNGRTYLHWYLQKPGQSPRLLIYRVSNRFPGVPDRFSGSGSGTDFTLKISRVEAEDVGVYYCSQSTHVPYTFGQGTKLEIK
notes: IgG format
B12: hJovi-1 variant IgG, VH T28K, Y32F, A100N, N103Y; VL unmutated (antibody, V domains shown)
VH: QVQLVQSGAEVKKPGASVKVSCKASGYKFTGFVMHWVRQAPGQGLEWMGFINPYNDDIQSNERFRGRVTMTRDTSISTAYMELSRLRSDDTAVYYCARGNGYYFDGAYRFFDFWGQGTMVTVSS
VL: DIVMTQSPLSLPVTPGEPASISCRSSQRLVHSNGNTYLHWYLQKPGQSPRLLIYRVSNRFPGVPDRFSGSGSGTDFTLKISRVEAEDVGVYYCSQSTHVPYTFGQGTKLEIK
notes: IgG format
B13: hJovi-1 variant IgG, VH T28K, Y32F, A100N, N103M; VL N35R (antibody, V domains shown)
VH: QVQLVQSGAEVKKPGASVKVSCKASGYKFTGFVMHWVRQAPGQGLEWMGFINPYNDDIQSNERFRGRVTMTRDTSISTAYMELSRLRSDDTAVYYCARGNGYMFDGAYRFFDFWGQGTMVTVSS
VL: DIVMTQSPLSLPVTPGEPASISCRSSQRLVHSNGRTYLHWYLQKPGQSPRLLIYRVSNRFPGVPDRFSGSGSGTDFTLKISRVEAEDVGVYYCSQSTHVPYTFGQGTKLEIK
notes: IgG format
B14: hJovi-1 variant IgG, VH T28K, Y32F, A100N, Y102L, N103W; VL N35K (antibody, V domains shown)
VH: QVQLVQSGAEVKKPGASVKVSCKASGYKFTGFVMHWVRQAPGQGLEWMGFINPYNDDIQSNERFRGRVTMTRDTSISTAYMELSRLRSDDTAVYYCARGNGLWFDGAYRFFDFWGQGTMVTVSS
VL: DIVMTQSPLSLPVTPGEPASISCRSSQRLVHSNGKTYLHWYLQKPGQSPRLLIYRVSNRFPGVPDRFSGSGSGTDFTLKISRVEAEDVGVYYCSQSTHVPYTFGQGTKLEIK
notes: IgG format
B15: hJovi-1 variant IgG, VH T28K, Y32F, A100N, N103H; VL unmutated (antibody, V domains shown)
VH: QVQLVQSGAEVKKPGASVKVSCKASGYKFTGFVMHWVRQAPGQGLEWMGFINPYNDDIQSNERFRGRVTMTRDTSISTAYMELSRLRSDDTAVYYCARGNGYHFDGAYRFFDFWGQGTMVTVSS
VL: DIVMTQSPLSLPVTPGEPASISCRSSQRLVHSNGNTYLHWYLQKPGQSPRLLIYRVSNRFPGVPDRFSGSGSGTDFTLKISRVEAEDVGVYYCSQSTHVPYTFGQGTKLEIK
notes: IgG format
B16: hJovi-1 variant IgG, VH T28K, Y32F, A100N, N103M; VL N35M (antibody, V domains shown)
VH: QVQLVQSGAEVKKPGASVKVSCKASGYKFTGFVMHWVRQAPGQGLEWMGFINPYNDDIQSNERFRGRVTMTRDTSISTAYMELSRLRSDDTAVYYCARGNGYMFDGAYRFFDFWGQGTMVTVSS
VL: DIVMTQSPLSLPVTPGEPASISCRSSQRLVHSNGMTYLHWYLQKPGQSPRLLIYRVSNRFPGVPDRFSGSGSGTDFTLKISRVEAEDVGVYYCSQSTHVPYTFGQGTKLEIK
notes: IgG format
B17: hJovi-1 variant IgG, VH T28K, Y32F, A100N, N103F; VL N35K (antibody, V domains shown)
VH: QVQLVQSGAEVKKPGASVKVSCKASGYKFTGFVMHWVRQAPGQGLEWMGFINPYNDDIQSNERFRGRVTMTRDTSISTAYMELSRLRSDDTAVYYCARGNGYFFDGAYRFFDFWGQGTMVTVSS
VL: DIVMTQSPLSLPVTPGEPASISCRSSQRLVHSNGKTYLHWYLQKPGQSPRLLIYRVSNRFPGVPDRFSGSGSGTDFTLKISRVEAEDVGVYYCSQSTHVPYTFGQGTKLEIK
notes: IgG format
B18: hJovi-1 variant IgG, VH T28K, Y32F, A100N, N103Q; VL unmutated (antibody, V domains shown)
VH: QVQLVQSGAEVKKPGASVKVSCKASGYKFTGFVMHWVRQAPGQGLEWMGFINPYNDDIQSNERFRGRVTMTRDTSISTAYMELSRLRSDDTAVYYCARGNGYQFDGAYRFFDFWGQGTMVTVSS
VL: DIVMTQSPLSLPVTPGEPASISCRSSQRLVHSNGNTYLHWYLQKPGQSPRLLIYRVSNRFPGVPDRFSGSGSGTDFTLKISRVEAEDVGVYYCSQSTHVPYTFGQGTKLEIK
notes: IgG format
B19: hJovi-1 variant IgG, VH T28K, Y32F, A100N, N103M; VL N35Y (antibody, V domains shown)
VH: QVQLVQSGAEVKKPGASVKVSCKASGYKFTGFVMHWVRQAPGQGLEWMGFINPYNDDIQSNERFRGRVTMTRDTSISTAYMELSRLRSDDTAVYYCARGNGYMFDGAYRFFDFWGQGTMVTVSS
VL: DIVMTQSPLSLPVTPGEPASISCRSSQRLVHSNGYTYLHWYLQKPGQSPRLLIYRVSNRFPGVPDRFSGSGSGTDFTLKISRVEAEDVGVYYCSQSTHVPYTFGQGTKLEIK
notes: IgG format
B20: hJovi-1 variant IgG, VH T28K, Y32F, A100N, Y102F; VL unmutated (antibody, V domains shown)
VH: QVQLVQSGAEVKKPGASVKVSCKASGYKFTGFVMHWVRQAPGQGLEWMGFINPYNDDIQSNERFRGRVTMTRDTSISTAYMELSRLRSDDTAVYYCARGNGFNFDGAYRFFDFWGQGTMVTVSS
VL: DIVMTQSPLSLPVTPGEPASISCRSSQRLVHSNGNTYLHWYLQKPGQSPRLLIYRVSNRFPGVPDRFSGSGSGTDFTLKISRVEAEDVGVYYCSQSTHVPYTFGQGTKLEIK
notes: IgG format
B21: hJovi-1 variant IgG, VH T28K, Y32F, A100N, Y102F, N103M; VL N35K (antibody, V domains shown)
VH: QVQLVQSGAEVKKPGASVKVSCKASGYKFTGFVMHWVRQAPGQGLEWMGFINPYNDDIQSNERFRGRVTMTRDTSISTAYMELSRLRSDDTAVYYCARGNGFMFDGAYRFFDFWGQGTMVTVSS
VL: DIVMTQSPLSLPVTPGEPASISCRSSQRLVHSNGKTYLHWYLQKPGQSPRLLIYRVSNRFPGVPDRFSGSGSGTDFTLKISRVEAEDVGVYYCSQSTHVPYTFGQGTKLEIK
notes: IgG format

Results are given in words; binding and its absence hold for the method and conditions named. Some results given as binding are weak or reduced against the parent protein; the word gives no strength.

The experiment has as its target Recombinant purified TRBC2 (human). The experiment in a line: SPR. For orientation: In SPR one partner is held on a chip, and binding of the other changes the refractive index at the surface.
B1: the binding result is reported as “binds”.

Turning to B2, the binding entry is given as “binds”.

Regarding B3, the binding entry was “binds”.

Regarding B4, the binding result was “binds”.

Take B5: the binding result is listed as “binds”.

For the molecule B6, the binding result is recorded as “binds”.

Regarding B7, the binding result is recorded as “binds”.

Consider B8, for which the binding result is on record as “binds”.

Regarding B9, the binding result is listed as “binds”.

Consider B10, for which the binding result is “binds”.

Take B11: the binding result is given as “binds”.

In the case of B12, the binding entry was “binds”.

In the case of B13, the binding entry is “binds”.

B14: the binding result was “binds”.

Consider B15, for which the binding result is listed as “binds”.

For the molecule B16, the binding result was “binds”.

Take B17: the binding entry is “binds”.

For B18, the binding result is “binds”.

In the case of B19, the binding entry is “binds”.

As for B20, the binding result is recorded as “binds”.

For the molecule B21, the binding entry is given as “binds”.
